Source: the supplement of paper PMC10849652
The other results are listed elsewhere or left out.

Sequences of proteins named here, by UniProt entry; tags and fusion partners are left off. A change or cut given only in a name is not applied to a line headed by its entry.
UniProt Q9Y371: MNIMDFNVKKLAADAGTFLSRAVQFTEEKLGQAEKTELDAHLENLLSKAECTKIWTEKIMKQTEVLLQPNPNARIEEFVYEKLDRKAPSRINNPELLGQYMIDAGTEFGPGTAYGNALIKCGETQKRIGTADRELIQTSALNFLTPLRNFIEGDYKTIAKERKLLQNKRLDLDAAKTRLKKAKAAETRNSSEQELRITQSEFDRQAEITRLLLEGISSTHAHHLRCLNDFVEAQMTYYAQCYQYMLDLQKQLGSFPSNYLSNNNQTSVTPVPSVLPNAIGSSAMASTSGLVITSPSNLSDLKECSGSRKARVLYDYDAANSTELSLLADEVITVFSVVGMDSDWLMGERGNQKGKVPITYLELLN
UniProt Q99574: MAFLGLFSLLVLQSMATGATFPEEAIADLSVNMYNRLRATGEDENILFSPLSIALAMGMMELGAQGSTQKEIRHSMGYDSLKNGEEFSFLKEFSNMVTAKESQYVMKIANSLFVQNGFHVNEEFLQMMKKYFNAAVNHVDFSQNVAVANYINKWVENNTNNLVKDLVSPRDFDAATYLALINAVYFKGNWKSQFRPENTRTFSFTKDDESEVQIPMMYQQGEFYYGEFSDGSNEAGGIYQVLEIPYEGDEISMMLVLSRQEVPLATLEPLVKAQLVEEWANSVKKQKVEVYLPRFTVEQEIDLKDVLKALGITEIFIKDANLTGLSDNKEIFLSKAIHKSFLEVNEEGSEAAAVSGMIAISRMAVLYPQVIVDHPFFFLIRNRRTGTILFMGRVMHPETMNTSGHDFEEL
UniProt O94979: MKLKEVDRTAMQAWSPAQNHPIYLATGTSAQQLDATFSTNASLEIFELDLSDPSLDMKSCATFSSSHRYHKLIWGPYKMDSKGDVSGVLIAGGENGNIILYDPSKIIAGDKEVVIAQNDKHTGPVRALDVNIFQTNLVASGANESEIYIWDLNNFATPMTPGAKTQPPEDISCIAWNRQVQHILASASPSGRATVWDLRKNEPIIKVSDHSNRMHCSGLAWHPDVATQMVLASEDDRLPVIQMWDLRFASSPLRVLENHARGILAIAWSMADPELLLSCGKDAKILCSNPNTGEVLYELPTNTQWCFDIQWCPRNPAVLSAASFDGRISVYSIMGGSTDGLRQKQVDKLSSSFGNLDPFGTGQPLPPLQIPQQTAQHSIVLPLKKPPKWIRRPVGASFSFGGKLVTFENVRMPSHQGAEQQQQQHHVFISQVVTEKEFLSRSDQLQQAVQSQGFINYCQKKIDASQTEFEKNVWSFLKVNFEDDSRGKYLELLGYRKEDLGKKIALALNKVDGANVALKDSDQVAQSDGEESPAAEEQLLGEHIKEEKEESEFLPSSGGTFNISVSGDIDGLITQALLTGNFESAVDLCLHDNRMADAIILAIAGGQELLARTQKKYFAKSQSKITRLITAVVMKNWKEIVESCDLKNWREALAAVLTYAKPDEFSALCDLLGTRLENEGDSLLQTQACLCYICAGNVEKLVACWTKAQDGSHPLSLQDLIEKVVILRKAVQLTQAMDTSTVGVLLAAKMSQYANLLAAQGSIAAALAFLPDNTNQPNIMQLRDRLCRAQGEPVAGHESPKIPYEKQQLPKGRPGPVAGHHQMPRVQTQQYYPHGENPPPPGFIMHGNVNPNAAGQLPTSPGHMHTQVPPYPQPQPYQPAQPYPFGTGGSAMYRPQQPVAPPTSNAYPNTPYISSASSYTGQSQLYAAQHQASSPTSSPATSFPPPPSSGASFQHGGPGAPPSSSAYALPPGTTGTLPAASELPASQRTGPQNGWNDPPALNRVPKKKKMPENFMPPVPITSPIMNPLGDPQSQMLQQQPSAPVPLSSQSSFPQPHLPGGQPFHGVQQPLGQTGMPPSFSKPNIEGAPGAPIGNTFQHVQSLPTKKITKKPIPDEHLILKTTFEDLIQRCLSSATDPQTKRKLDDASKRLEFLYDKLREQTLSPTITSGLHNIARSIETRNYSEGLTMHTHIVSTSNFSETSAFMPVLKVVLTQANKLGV
UniProt Q96EQ0: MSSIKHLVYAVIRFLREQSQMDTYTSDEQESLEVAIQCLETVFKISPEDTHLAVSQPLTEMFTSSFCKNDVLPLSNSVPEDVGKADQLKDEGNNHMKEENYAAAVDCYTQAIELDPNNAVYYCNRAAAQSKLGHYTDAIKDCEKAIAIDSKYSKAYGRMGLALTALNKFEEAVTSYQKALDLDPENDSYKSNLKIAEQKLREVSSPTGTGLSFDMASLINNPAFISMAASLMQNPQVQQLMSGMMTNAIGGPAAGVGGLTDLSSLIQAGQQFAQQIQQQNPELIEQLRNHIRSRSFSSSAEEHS
UniProt Q9C0C4, whole entry, looked up: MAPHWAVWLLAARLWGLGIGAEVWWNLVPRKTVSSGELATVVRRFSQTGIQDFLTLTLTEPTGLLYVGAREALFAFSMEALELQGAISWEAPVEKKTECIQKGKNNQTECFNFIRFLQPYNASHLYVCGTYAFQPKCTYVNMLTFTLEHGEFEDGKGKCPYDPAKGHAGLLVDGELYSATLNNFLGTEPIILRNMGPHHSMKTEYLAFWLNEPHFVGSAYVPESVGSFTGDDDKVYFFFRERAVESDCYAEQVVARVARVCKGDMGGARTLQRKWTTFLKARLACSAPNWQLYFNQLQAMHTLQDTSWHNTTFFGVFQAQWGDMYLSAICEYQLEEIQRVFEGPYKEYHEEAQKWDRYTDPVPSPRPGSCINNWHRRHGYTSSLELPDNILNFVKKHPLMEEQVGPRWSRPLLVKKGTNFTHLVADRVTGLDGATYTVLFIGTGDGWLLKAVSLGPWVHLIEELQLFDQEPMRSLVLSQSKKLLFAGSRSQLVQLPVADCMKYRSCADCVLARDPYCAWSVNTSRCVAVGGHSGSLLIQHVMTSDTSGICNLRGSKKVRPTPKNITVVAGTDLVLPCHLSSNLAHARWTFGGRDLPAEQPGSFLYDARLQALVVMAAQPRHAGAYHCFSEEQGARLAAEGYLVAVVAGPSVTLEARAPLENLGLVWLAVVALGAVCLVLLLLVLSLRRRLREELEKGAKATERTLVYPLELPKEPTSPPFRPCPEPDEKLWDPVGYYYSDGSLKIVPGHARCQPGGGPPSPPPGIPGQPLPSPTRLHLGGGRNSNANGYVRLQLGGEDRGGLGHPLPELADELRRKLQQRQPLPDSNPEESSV
UniProt Q86XK3: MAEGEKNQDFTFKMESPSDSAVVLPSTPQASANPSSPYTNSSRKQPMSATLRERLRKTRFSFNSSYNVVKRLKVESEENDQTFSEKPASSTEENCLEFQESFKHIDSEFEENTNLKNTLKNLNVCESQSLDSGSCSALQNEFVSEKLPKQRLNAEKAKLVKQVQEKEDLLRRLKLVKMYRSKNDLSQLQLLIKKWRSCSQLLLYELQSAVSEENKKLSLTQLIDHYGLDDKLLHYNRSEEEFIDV
UniProt P84101: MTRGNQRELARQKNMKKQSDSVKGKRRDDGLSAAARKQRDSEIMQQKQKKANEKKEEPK
UniProt Q8NBJ9: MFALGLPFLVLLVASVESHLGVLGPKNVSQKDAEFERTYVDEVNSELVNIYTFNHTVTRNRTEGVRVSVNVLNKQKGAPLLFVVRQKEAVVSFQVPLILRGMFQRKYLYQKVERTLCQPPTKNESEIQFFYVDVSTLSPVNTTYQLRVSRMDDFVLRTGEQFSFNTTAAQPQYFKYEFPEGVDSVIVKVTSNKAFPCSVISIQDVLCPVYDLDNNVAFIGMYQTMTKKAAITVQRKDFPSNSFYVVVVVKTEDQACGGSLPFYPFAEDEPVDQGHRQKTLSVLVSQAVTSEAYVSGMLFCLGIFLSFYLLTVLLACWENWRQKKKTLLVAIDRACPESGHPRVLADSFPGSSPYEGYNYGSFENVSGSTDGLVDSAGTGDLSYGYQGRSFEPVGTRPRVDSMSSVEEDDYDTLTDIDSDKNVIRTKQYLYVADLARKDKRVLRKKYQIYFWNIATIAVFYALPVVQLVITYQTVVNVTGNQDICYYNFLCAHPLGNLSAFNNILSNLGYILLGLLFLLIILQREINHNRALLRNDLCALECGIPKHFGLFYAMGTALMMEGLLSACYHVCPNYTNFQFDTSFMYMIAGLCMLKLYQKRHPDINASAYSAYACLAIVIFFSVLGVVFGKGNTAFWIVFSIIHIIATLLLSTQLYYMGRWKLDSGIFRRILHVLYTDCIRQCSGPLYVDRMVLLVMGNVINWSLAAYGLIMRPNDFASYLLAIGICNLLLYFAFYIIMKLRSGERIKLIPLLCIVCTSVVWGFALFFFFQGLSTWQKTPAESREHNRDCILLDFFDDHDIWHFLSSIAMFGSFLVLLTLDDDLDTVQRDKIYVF
UniProt O43765: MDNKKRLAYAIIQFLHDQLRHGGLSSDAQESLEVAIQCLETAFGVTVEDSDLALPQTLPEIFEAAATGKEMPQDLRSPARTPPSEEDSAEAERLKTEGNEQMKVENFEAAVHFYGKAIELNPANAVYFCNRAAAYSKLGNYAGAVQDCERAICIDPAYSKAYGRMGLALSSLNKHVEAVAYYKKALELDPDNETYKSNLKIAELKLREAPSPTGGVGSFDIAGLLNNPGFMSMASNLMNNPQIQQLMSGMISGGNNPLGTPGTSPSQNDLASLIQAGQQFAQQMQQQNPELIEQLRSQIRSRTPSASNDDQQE
UniProt O60613, whole entry, looked up: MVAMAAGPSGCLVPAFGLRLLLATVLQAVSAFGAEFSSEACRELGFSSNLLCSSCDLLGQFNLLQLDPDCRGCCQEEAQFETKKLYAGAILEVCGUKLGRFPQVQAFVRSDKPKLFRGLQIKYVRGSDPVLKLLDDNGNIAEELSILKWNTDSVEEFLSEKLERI
UniProt Q8IZQ5, whole entry, looked up: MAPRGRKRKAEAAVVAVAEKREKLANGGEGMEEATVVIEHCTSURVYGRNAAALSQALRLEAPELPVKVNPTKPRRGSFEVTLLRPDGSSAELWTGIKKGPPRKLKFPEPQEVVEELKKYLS
UniProt O95562: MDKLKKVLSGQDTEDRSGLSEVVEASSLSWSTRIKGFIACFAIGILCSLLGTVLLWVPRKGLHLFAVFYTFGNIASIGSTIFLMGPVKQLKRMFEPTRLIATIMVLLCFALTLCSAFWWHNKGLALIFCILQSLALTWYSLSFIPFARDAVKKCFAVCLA
UniProt Q7L8J4: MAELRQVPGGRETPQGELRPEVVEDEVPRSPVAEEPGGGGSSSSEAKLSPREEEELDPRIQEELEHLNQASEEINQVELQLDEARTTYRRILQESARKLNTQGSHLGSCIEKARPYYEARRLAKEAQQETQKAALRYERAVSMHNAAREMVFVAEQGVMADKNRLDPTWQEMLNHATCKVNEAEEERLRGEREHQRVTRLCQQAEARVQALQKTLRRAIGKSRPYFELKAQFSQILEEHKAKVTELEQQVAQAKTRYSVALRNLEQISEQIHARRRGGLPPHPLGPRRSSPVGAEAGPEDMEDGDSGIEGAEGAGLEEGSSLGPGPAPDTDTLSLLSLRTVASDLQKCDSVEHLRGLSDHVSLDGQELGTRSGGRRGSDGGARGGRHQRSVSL
UniProt P30740: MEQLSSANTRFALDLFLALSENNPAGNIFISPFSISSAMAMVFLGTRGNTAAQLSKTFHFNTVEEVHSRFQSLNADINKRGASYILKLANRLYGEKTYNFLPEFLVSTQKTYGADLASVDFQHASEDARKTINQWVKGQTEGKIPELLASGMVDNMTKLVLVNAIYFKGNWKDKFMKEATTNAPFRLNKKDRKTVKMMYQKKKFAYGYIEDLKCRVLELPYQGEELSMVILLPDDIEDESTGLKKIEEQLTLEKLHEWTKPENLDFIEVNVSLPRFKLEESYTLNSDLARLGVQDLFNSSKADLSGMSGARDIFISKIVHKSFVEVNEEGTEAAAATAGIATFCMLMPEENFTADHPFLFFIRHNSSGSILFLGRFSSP
UniProt P61619, whole entry, looked up: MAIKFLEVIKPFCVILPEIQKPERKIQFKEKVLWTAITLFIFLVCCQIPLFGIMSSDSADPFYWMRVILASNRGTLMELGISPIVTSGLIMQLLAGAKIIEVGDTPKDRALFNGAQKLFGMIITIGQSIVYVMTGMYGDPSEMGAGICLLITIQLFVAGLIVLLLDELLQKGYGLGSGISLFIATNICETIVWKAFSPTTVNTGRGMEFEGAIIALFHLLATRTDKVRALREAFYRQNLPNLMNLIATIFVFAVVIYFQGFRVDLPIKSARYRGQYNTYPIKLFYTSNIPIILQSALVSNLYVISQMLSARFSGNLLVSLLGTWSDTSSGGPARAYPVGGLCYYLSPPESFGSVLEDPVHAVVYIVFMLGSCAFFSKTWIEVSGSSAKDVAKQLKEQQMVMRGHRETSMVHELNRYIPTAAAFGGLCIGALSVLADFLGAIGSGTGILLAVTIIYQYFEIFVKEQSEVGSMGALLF
UniProt O43255: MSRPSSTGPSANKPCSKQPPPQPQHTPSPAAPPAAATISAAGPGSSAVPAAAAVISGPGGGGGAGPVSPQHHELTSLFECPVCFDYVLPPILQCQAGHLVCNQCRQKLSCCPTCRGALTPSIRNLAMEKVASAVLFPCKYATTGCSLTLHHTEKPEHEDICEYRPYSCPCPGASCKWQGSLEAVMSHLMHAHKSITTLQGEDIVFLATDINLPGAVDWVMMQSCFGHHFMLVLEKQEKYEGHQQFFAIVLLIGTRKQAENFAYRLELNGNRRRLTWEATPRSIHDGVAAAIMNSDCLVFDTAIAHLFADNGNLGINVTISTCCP

Legend:
Assay in all cases: log2 fold change, soluble protein after heating vs DMSO (PISA); higher = thermal stabilisation; K562 cells, 10 uM, 30 min; active = over 0.2 and 3.5 SD of the protein, either way, in both replicates (recomputed)
[1] = compound: C1=CC=C(C=C1)[C@H](COC2=CC3=C(C=C2)NC(=O)N3)NC(=O)C4=CC=CN(C4=O)CC5=CC(=C(C=C5)F)F
Procedure, shortened: (§1)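 Quantification of soluble protein used TMTpro 16plex LC-MS/MS, with channel sums equalised. Samples were the supernatant after 21,000xg for 90 min of pooled aliquots from K562 cells (2×10^6 cells/mL) treated with 10 μM compound for 30 min, heated for 3 min over 48°C-58°C, and extracted in PBS with 0.5% NP-40 at 4°C. Values, from duplicates, describe thermal stability against control samples on a log2 fold-change scale.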

[2] = compound: CC1=C(SC2=C1C(=N[C@H](C3=NN=C(N32)C)CC(=O)N)C4=CC=C(C=C4)Cl)C
Procedure, shortened: as §1

[3] = compound: CC1=C2C(=CC=C1)N=C(N(C2=O)C3=CC=CC=C3C)CN4C=NC5=C(N=CN=C54)N
Procedure, shortened: as §1

[4] = compound: Cc1sc2c(c1C)C(c1ccc(Cl)cc1)=N[C@@H](CC(=O)OC(C)(C)C)c1nnc(C)n1-2
Procedure, shortened: as §1

[5] = compound: c1ccc([C@@H]2C[C@H]2NC2CCNCC2)cc1
Procedure, shortened: as §1

Measured: log2 fold change

SFXN4 isoform 3 (UniProt Q6P4A7)
inactive: [1] 0.053 | [2] 0.316 | [3] 0.302 | [4] -0.198 | [5] 0.033

SIRT5 (UniProt Q9NXA8)
inactive: [1] -0.011 | [2] -0.021 | [3] 0.011 | [4] -0.051 | [5] -0.056

SERGEF (UniProt Q9UGK8)
inactive: [1] -0.089 | [2] 0.088 | [3] 0.02 | [4] 0.019 | [5] -0.107

SH3GLB1 isoform 2 (UniProt Q9Y371)
inactive: [1] -0.061 | [2] 0.015 | [3] 0.034 | [4] 0.123 | [5] -0.019

SEPSECS (UniProt Q9HD40)
inactive: [1] 0.029 | [2] -0.04 | [3] -0.109 | [4] -0.025 | [5] 0.046

SIRT6 (UniProt Q8N6T7)
inactive: [1] -0.124 | [2] 0.011 | [3] 0.166 | [4] 0.021 | [5] 0.013

SERBP1 (UniProt Q8NC51)
inactive: [1] 0.067 | [2] -0.034 | [3] -0.023 | [4] 0.053 | [5] 0.035

SF3B1 (UniProt O75533)
inactive: [1] -0.023 | [2] 0.015 | [3] 0.039 | [4] 0.043 | [5] 0.009

SERPINI1 (UniProt Q99574)
inactive: [1] -0.007 | [2] -0.019 | [3] 0.041 | [4] 0.046 | [5] 0.084

SERINC3 (UniProt Q13530)
inactive: [1] -0.062 | [2] 0.045 | [3] 0.071 | [4] -0.062 | [5] 0.133

SF3B4 (UniProt Q15427)
inactive: [1] 0.044 | [2] -0.047 | [3] -0.125 | [4] 0.064 | [5] 0.117

SERPINF1 (UniProt P36955)
inactive: [1] -0.099 | [2] 0.042 | [3] 0.007 | [4] 0.07 | [5] 0.022

SEC31A (UniProt O94979)
inactive: [1] -0.067 | [2] 0.034 | [3] 0.09 | [4] -0.03 | [5] -0.006

SKP1 (UniProt P63208)
inactive: [1] -0.035 | [2] -0.008 | [3] 0 | [4] -0.036 | [5] -0.017

SFN (UniProt P31947)
inactive: [1] 0.004 | [2] 0.042 | [3] 0.073 | [4] -0.027 | [5] -0.017

SET isoform 2 (UniProt Q01105)
inactive: [1] -0.02 | [2] 0.002 | [3] -0.032 | [4] -0.025 | [5] -0.004

SF3B2 (UniProt Q13435)
inactive: [1] 0.024 | [2] -0.035 | [3] -0.026 | [4] 0.063 | [5] 0.019

SGTB (UniProt Q96EQ0)
inactive: [1] -0.033 | [2] 0.055 | [3] 0.135 | [4] -0.043 | [5] -0.031

SEMA4C (UniProt Q9C0C4)
inactive: [1] -0.017 | [2] 0.057 | [3] 0.004 | [4] 0.018 | [5] 0.05

SEPTIN6 (UniProt Q14141)
inactive: [1] 0.058 | [2] 0.058 | [3] -0.006 | [4] -0.009 | [5] -0.009

SEMA4B (UniProt Q9NPR2)
inactive: [1] 0.023 | [2] -0.083 | [3] 0.081 | [4] 0.133 | [5] 0.085

SEPHS1 (UniProt P49903)
inactive: [1] 0.004 | [2] 0.068 | [3] 0.007 | [4] -0.014 | [5] -0.015

SFR1 isoform 2 (UniProt Q86XK3)
inactive: [1] 0.005 | [2] 0.113 | [3] 0.108 | [5] 0.056

SHCBP1 (UniProt Q8NEM2)
inactive: [1] 0.018 | [2] -0.176 | [3] 0.138 | [4] -0.089 | [5] -0.056

SGO1 (UniProt Q5FBB7)
inactive: [1] 0.002 | [2] 0.015 | [3] 0.001 | [4] 0.015 | [5] -0.008

SERF2 (UniProt P84101)
inactive: [1] 0.016 | [2] 0.128 | [3] -0.029 | [4] 0.039 | [5] 0.014

SH3BP5 (UniProt O60239)
inactive: [1] 0.023 | [2] -0.008 | [3] -0.069 | [4] 0.066 | [5] -0.033

SH3GL1 (UniProt Q99961)
inactive: [1] -0.073 | [2] 0 | [3] 0.118 | [4] 0.002 | [5] -0.049

SFXN1 (UniProt Q9H9B4)
inactive: [1] -0.004 | [2] 0.075 | [3] 0.028 | [4] -0.056 | [5] -0.01

SIDT2 isoform 2 (UniProt Q8NBJ9)
inactive: [1] -0.005 | [2] -0.005 | [3] 0.018 | [4] -0.115 | [5] 0.088

SGTA (UniProt O43765)
inactive: [1] -0.005 | [2] 0.017 | [3] 0.04 | [4] -0.042 | [5] -0.03

SELENOF (UniProt O60613)
inactive: [1] 0.033 | [2] 0.018 | [3] 0.063 | [4] -0.01 | [5] -0.036

SERPINH1 (UniProt P50454)
inactive: [1] 0.046 | [2] 0.007 | [3] -0.025 | [4] -0.017 | [5] -0.037

SF3A3 (UniProt Q12874)
inactive: [1] -0.091 | [2] -0.041 | [3] 0.006 | [4] 0.013 | [5] -0.069

SIPA1 (UniProt Q96FS4)
inactive: [1] 0.072 | [2] 0.021 | [3] 0.053 | [4] 0.029 | [5] -0.026

SIL1 (UniProt Q9H173)
inactive: [1] 0.034 | [2] -0.005 | [3] 0.064 | [4] 0.034 | [5] -0.006

12 successive entries from above:
SGTB (UniProt Q96EQ0)
inactive: [1] -0.033 | [2] 0.055 | [3] 0.135 | [4] -0.043 | [5] -0.031

SEMA4C (UniProt Q9C0C4)
inactive: [1] -0.017 | [2] 0.057 | [3] 0.004 | [4] 0.018 | [5] 0.05

SEPTIN6 (UniProt Q14141)
inactive: [1] 0.058 | [2] 0.058 | [3] -0.006 | [4] -0.009 | [5] -0.009

SEMA4B (UniProt Q9NPR2)
inactive: [1] 0.023 | [2] -0.083 | [3] 0.081 | [4] 0.133 | [5] 0.085

SEPHS1 (UniProt P49903)
inactive: [1] 0.004 | [2] 0.068 | [3] 0.007 | [4] -0.014 | [5] -0.015

SFR1 isoform 2 (UniProt Q86XK3)
inactive: [1] 0.005 | [2] 0.113 | [3] 0.108 | [5] 0.056

SHCBP1 (UniProt Q8NEM2)
inactive: [1] 0.018 | [2] -0.176 | [3] 0.138 | [4] -0.089 | [5] -0.056

SGO1 (UniProt Q5FBB7)
inactive: [1] 0.002 | [2] 0.015 | [3] 0.001 | [4] 0.015 | [5] -0.008

SERF2 (UniProt P84101)
inactive: [1] 0.016 | [2] 0.128 | [3] -0.029 | [4] 0.039 | [5] 0.014

SH3BP5 (UniProt O60239)
inactive: [1] 0.023 | [2] -0.008 | [3] -0.069 | [4] 0.066 | [5] -0.033

SH3GL1 (UniProt Q99961)
inactive: [1] -0.073 | [2] 0 | [3] 0.118 | [4] 0.002 | [5] -0.049

SFXN1 (UniProt Q9H9B4)
inactive: [1] -0.004 | [2] 0.075 | [3] 0.028 | [4] -0.056 | [5] -0.01

Next results follow.

SELENOH (UniProt Q8IZQ5)
inactive: [1] 0.049 | [2] -0.107 | [3] -0.258 | [4] -0.028 | [5] 0.08

SFT2D2 (UniProt O95562)
inactive: [1] 0.047 | [2] 0.097 | [3] 0.116 | [4] -0.024 | [5] -0.002

SHTN1 isoform 3 (UniProt A0MZ66)
inactive: [1] -0.058 | [2] 0.009 | [3] 0.148 | [4] -0.027 | [5] -0.024

SEPTIN10 isoform 2 (UniProt Q9P0V9)
inactive: [1] -0.046 | [2] 0.138 | [3] 0.03 | [4] -0.087 | [5] -0.08

SH3BP5L (UniProt Q7L8J4)
inactive: [1] -0.023 | [2] 0.02 | [3] 0.14 | [4] -0.014 | [5] -0.045

SELENBP1 isoform 4 (UniProt Q13228)
inactive: [1] -0.014 | [2] 0 | [3] -0.014 | [4] -0.005 | [5] 0.031

SF3A1 (UniProt Q15459)
inactive: [1] -0.021 | [2] 0.006 | [3] 0.007 | [4] 0.011 | [5] 0.002

SFXN2 (UniProt Q96NB2)
inactive: [1] -0.006 | [2] -0.025 | [3] 0.159 | [4] -0.054 | [5] -0.006

SGMS1 (UniProt Q86VZ5)
inactive: [1] 0.017 | [2] -0.019 | [3] 0.007 | [4] -0.036 | [5] 0.033

SELENOS (UniProt Q9BQE4)
inactive: [1] 0.003 | [2] 0.052 | [3] 0.04 | [4] 0.014 | [5] 0.093

SEPTIN5 (UniProt Q99719)
inactive: [1] -0.021 | [2] 0.069 | [3] 0.014 | [4] -0.045 | [5] -0.016

SERPINB1 (UniProt P30740)
inactive: [1] 0.002 | [2] 0.081 | [3] 0.078 | [4] -0.011 | [5] -0.01

SENP6 (UniProt Q9GZR1)
inactive: [1] 0.023 | [2] 0.014 | [3] 0.048 | [4] 0.022 | [5] 0.056

SEC61A1 (UniProt P61619)
inactive: [1] 0.03 | [2] 0.05 | [3] 0.031 | [4] -0.042 | [5] -0.007

SIGMAR1 (UniProt Q99720)
inactive: [1] -0.03 | [2] -0.011 | [3] 0.052 | [4] -0.013 | [5] 0.039

SERPINB9 (UniProt P50453)
inactive: [1] 0 | [2] 0.014 | [3] 0.023 | [4] -0.037 | [5] -0.004

SIAH2 (UniProt O43255)
inactive: [1] -0.066 | [2] 0.076 | [3] 0.008 | [5] 0.116
